Source: article PMC12644819 (Nature Communications, 2025)

Amino acid sequences for entries named in this document (tags omitted). Residues count along the entry.
UniProt P0ADC1, residues 19-193: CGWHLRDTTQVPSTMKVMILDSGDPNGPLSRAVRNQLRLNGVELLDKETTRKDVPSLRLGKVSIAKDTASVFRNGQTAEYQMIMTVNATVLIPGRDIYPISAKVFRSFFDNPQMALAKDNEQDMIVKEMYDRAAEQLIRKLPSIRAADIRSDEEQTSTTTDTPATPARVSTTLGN

Tests used:
[1] = biological target: T1, LptM^His (E. coli) (UniProt P0ADN6); experiment: affinity purification with mass spectrometry; nickel-affinity chromatography and gel filtration of LptM^His (wild-type cells) or LptE^His (ΔlptM cells) from DDM-solubilised envelope; SDS-PAGE with Coomassie; ~15 kDa band identified by bottom-up mass spectrometry
T1 sequence (chain, lipoprotein; acyl tails on the N-terminal Cys): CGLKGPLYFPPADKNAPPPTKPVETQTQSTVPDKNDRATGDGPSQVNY

[2] = biological target: LptE^His (E. coli) (UniProt P0ADC1); experiment: as above

binding [1]: binds | binding [2]: binds
B1: LptY (natural protein, E. coli, UniProt P31063 16-137, looked up)
chain: CAEVENYNNVVKTPAPDWLAGYWQTKGPQRALVSPEAIGSLIVTKEGDTLDCRQWQRVIAVPGKLTLMSDDLTNVTVKRELYEVERDGNTIEYDGMTMERVDRPTAECAAALDKAPLPTPLP
modifications: lipoprotein
notes: LptY (formerly YedD), E. coli OM lipoprotein of ~14 kDa; an AlphaFold2 model was docked; also called YedD; source: endogenous, E. coli BW25113; co-purified with LptDEM^His or LptDE^His (Ni-NTA, SEC)

These are yes or no findings as the source states them, for the method shown. In cells and extracts the contact can be indirect. Here binding means that the protein was enriched with, or labelled near, the bait; the list need not be complete. For some assays here: Tags and fused reporters may be left off the sequences shown.
